No constants are given. Whether binding was seen depends on the method and setting. In cells and extracts the contact can be indirect. Some results given as binding are weak or reduced against the parent protein; the word gives no strength. For part of these data: Where a sequence is shown, tags or fusion partners need not be part of it.
Columns and labels:
Test in all cases: co-IP
[1] = target: T1, FLAG-tagged mouse APLF, full length, stably expressed in E14 ESCs (mouse) (UniProt Q9D842)
T1 sequence: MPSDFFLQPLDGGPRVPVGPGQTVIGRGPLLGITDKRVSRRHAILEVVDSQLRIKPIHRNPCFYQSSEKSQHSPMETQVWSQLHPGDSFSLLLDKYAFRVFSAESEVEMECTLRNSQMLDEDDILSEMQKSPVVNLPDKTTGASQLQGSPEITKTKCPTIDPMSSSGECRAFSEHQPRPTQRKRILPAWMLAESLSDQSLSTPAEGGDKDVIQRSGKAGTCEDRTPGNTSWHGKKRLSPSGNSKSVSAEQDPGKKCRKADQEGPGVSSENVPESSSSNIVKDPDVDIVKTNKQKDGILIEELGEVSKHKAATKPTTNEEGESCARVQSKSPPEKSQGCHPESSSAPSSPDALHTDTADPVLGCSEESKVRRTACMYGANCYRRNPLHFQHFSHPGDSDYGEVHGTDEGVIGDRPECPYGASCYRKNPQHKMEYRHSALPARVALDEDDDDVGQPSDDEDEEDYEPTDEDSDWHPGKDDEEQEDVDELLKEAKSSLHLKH

Chains of the proteins cited; added tags and fusions are not shown.
UniProt Q9R1K9: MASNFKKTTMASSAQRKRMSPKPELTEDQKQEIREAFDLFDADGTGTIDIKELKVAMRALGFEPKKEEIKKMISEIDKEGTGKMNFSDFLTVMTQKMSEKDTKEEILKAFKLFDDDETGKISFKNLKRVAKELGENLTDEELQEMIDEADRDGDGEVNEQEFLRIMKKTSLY

[2] = target: T2, endogenous mouse APLF (mouse (endogenous in E14 ESCs)) (UniProt Q9D842)
T2 sequence: T1 sequence

[3] = target: T3, Polo-like Kinase 4 (PLK4) (mouse (endogenous in E14 ESCs)) (UniProt Q64702)
T3 sequence: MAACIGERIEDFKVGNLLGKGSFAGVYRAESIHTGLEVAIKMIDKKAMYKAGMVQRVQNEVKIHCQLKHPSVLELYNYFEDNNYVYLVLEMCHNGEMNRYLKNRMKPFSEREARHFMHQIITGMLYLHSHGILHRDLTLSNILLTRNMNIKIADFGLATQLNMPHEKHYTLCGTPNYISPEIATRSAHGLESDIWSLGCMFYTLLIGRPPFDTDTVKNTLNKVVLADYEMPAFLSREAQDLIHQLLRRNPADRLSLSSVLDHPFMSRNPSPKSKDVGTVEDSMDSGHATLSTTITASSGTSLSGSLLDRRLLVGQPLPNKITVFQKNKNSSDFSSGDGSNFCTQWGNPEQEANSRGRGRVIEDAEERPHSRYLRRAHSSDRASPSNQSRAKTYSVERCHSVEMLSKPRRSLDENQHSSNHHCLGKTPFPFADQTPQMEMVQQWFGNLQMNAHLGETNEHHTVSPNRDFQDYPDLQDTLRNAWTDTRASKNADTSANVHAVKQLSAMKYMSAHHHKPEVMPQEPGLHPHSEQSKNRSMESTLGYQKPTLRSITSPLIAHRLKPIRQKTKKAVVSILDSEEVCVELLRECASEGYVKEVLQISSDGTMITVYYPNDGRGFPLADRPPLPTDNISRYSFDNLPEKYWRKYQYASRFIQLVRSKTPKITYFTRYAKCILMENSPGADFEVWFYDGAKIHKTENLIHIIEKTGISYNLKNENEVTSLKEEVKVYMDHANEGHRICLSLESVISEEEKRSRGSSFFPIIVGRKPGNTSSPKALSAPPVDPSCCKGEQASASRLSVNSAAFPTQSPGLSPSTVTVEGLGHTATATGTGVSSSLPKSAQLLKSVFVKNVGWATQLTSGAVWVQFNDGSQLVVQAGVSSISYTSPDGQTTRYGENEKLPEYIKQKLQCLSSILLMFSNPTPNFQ

Molecule: Centrin 2 (CETN2) (from UniProt Q9R1K9 1-172)
- binding [1]: binds

B1: Polo-like Kinase 4 (PLK4) (enzyme, UniProt Q64702 1-925)
chain: T3 sequence
- binding [2]: binds

B2: endogenous mouse APLF (protein, UniProt Q9D842 1-499)
chain: T1 sequence
- binding [3]: binds
